Data as given in PubChem BioAssay AID504764 (Drosophila RNAi Screening Center, 2011)

- Assay: 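Genes whose knock-down alters Notch-dependent transcription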 (primary screen)
- System: Drosophila Kc167 cells
- Knock-down reagent: long dsRNA against Drosophila genes
- Timing: about 5 days (4 days dsRNA, then 24 h after transfection)
- Challenge: transfection of constitutively active membrane-tethered Notch lacking the extracellular domain, read 24 h later
- Measured: 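Firefly luciferase from an E(spl)m3 reporter with active Notch, plus control-promoter and uninduced reporter wells for normalisation; unnormalised counts, duplicate wells a and b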
- Direction: induced reporter light, run 1, well a and induced reporter light, run 1, well b: higher = more light from the Notch target reporter with active Notch; control promoter light, run 1, well a and control promoter light, run 1, well b: higher = more light from the viral control promoter (cell number, transfection, viability); uninduced reporter light, run 1, well a: higher = more light from the Notch target reporter without active Notch
- Active means: 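Wells with low control signal or poorly matching duplicates excluded; duplicates averaged; per source plate, z beyond ±2 for induced/control log2 ratio or beyond ±1.8 for induced/uninduced marks a hit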
- Calls: active = modifier hit (raised or lowered Notch signal); inactive = not a hit
The deposit covers about 22,000 reagents; below is an unselected part of those with a known target gene and a result. In the full data, 403 (1.9%) got an active call. 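Unnormalised raw counts per well; ratio z-scores behind the hit calls and whether each hit raises or lowers signal are not deposited.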 The numbers tell different reagents against one gene apart. A plus sign joins genes that one reagent is predicted to hit. The record does not give: the amount of reagent.

Paris: induced reporter light, run 1, well a = 91965; induced reporter light, run 1, well b = 1.75e5; control promoter light, run 1, well a = 2.13e5; control promoter light, run 1, well b = 2.47e5; uninduced reporter light, run 1, well a = 14875; Outcome = inactive
snky: induced reporter light, run 1, well a = 1.33e5; induced reporter light, run 1, well b = 1.42e5; control promoter light, run 1, well a = 2.08e5; control promoter light, run 1, well b = 1.53e5; uninduced reporter light, run 1, well a = 8925; Outcome = inactive
CG14397: induced reporter light, run 1, well a = 43385; induced reporter light, run 1, well b = 39545; control promoter light, run 1, well a = 47445; control promoter light, run 1, well b = 55235; uninduced reporter light, run 1, well a = 2680; Outcome = inactive
d4: induced reporter light, run 1, well a = 2.36e5; induced reporter light, run 1, well b = 2.30e5; control promoter light, run 1, well a = 2.36e5; control promoter light, run 1, well b = 2.20e5; uninduced reporter light, run 1, well a = 18610; Outcome = inactive
mRpS35: induced reporter light, run 1, well a = 83630; induced reporter light, run 1, well b = 1.17e5; control promoter light, run 1, well a = 1.46e5; control promoter light, run 1, well b = 1.00e5; uninduced reporter light, run 1, well a = 5940; Outcome = inactive
CG3706: induced reporter light, run 1, well a = 1.34e5; induced reporter light, run 1, well b = 1.16e5; control promoter light, run 1, well a = 2.61e5; control promoter light, run 1, well b = 2.41e5; uninduced reporter light, run 1, well a = 11678; Outcome = inactive
psh: induced reporter light, run 1, well a = 95205; induced reporter light, run 1, well b = 1.01e5; control promoter light, run 1, well a = 92580; control promoter light, run 1, well b = 86550; uninduced reporter light, run 1, well a = 13665; Outcome = inactive
TMEM216 + CG11760: induced reporter light, run 1, well a = 1.42e5; induced reporter light, run 1, well b = 1.62e5; control promoter light, run 1, well a = 1.20e5; control promoter light, run 1, well b = 1.27e5; uninduced reporter light, run 1, well a = 13175; Outcome = inactive
EMC7: induced reporter light, run 1, well a = 1.32e5; induced reporter light, run 1, well b = 85725; control promoter light, run 1, well a = 1.12e5; control promoter light, run 1, well b = 1.35e5; uninduced reporter light, run 1, well a = 7265; Outcome = inactive
Wdr62 #1: induced reporter light, run 1, well a = 1.17e5; induced reporter light, run 1, well b = 1.07e5; control promoter light, run 1, well a = 1.64e5; control promoter light, run 1, well b = 1.40e5; uninduced reporter light, run 1, well a = 9045; Outcome = inactive
Wdr62 #2: induced reporter light, run 1, well a = 1.32e5; induced reporter light, run 1, well b = 1.06e5; control promoter light, run 1, well a = 1.73e5; control promoter light, run 1, well b = 2.00e5; uninduced reporter light, run 1, well a = 11985; Outcome = inactive
Wdr62 #3: induced reporter light, run 1, well a = 45540; induced reporter light, run 1, well b = 42075; control promoter light, run 1, well a = 24200; control promoter light, run 1, well b = 29360; uninduced reporter light, run 1, well a = 9455; Outcome = inactive

Records listed so far whose gene name begins with P or p:
Paris: induced reporter light, run 1, well a = 91965; induced reporter light, run 1, well b = 1.75e5; control promoter light, run 1, well a = 2.13e5; control promoter light, run 1, well b = 2.47e5; uninduced reporter light, run 1, well a = 14875; Outcome = inactive
psh: induced reporter light, run 1, well a = 95205; induced reporter light, run 1, well b = 1.01e5; control promoter light, run 1, well a = 92580; control promoter light, run 1, well b = 86550; uninduced reporter light, run 1, well a = 13665; Outcome = inactive
